{"source": "paper PMC5643326", "biological_target": "T1, Sch9-FLAG (yeast) (UniProt P11792)", "T1 sequence": "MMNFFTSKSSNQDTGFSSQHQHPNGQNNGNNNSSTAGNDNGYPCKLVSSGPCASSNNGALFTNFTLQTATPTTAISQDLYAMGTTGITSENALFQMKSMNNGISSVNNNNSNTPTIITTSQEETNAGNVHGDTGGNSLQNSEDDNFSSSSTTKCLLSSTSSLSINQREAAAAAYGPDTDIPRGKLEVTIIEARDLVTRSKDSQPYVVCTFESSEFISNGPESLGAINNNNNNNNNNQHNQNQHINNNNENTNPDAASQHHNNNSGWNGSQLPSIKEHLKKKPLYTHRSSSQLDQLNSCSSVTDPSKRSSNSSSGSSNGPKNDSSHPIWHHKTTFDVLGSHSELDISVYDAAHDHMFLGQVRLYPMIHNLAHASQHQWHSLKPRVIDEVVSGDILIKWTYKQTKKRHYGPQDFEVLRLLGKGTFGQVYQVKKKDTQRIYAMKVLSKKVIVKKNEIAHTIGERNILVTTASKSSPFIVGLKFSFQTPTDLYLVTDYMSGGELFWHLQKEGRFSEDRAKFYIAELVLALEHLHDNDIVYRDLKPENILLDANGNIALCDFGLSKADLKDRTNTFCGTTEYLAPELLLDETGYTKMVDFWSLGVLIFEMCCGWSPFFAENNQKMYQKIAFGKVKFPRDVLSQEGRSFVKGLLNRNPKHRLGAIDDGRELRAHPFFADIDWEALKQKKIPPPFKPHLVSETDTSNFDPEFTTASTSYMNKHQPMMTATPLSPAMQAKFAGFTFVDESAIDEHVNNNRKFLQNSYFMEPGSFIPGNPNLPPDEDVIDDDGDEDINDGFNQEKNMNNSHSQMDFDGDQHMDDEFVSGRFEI", "experiment": "co-IP; Sch9-FLAG from cleared glass bead lysate (30-35 mg total protein) of Δsch9 + pYEPlac195-Sch9-FLAG cells bound to anti-FLAG M2 beads, 1 h at 4 °C; 20 mM HEPES-KOH, 150 mM potassium acetate, 2 mM magnesium acetate, 10% glycerol, pH 7.5; wash with 0.1% Triton X-100, then without detergent; immunoblot with α-Sch9, α-Ssb, α-Maf1; control: untagged Sch9", "note": "No constants are given. Whether binding was seen depends on the method and setting. Binding seen in cells or lysates may run through a third protein. Some binding calls cover weakened binding; strength is not graded here. Tags and fused reporters may be left off the sequences shown."}
{"binder": "Maf1 (protein, UniProt P41910 1-395) MKFIDELDIERVNQTLNFETNDCKIVGSCDIFTTKAVASDRKLYKTIDQHLDTILQENENYNATLQQQLAAPETNQSPCSSPFYSNRRDSNSFWEQKRRISFSEYNSNNNTNNSNGNSSNNNNYSGPNGSSPATFPKSAKLNDQNLKELVSNYDSGSMSSSSLDSSSKNDERIRRRSSSSISSFKSGKSSNNNYSSGTATNNVNKRRKSSINERPSNLSLGPFGPINEPSSRKIFAYLIAILNASYPDHDFSSVEPTDFVKTSLKTFISKFENTLYSLGRQPEEWVWEVINSHMTLSDCVLFQYSPSNSFLEDEPGYLWNLIGFLYNRKRKRVAYLYLICSRLNSSTGEVEDALAKKPQGKLIIDDGSNEYEGEYDFTYDENVIDDKSDQEESLQ", "values": [{"measurement": "binding", "result": "binds weakly"}]}
